For test [1], the target named is HA-DDX6 (DEAD-Box Helicase 6) (UniProt P26196). In words: co-IP; HEK293T cells transfected with HA control or HA-DDX6/G3BP1, treated with 1 mM LLOMe for 1 h or 30 min followed by a 30 min recovery; lysates immunoprecipitated with anti-HA antibody and immunoblotted.
Test [2] addresses HA-G3BP1 (UniProt Q13283). The test is described as above.

Sequences of proteins named here, by UniProt entry; tags and fusion partners are left off. A change or cut given only in a name is not applied to a line headed by its entry.
UniProt P26196: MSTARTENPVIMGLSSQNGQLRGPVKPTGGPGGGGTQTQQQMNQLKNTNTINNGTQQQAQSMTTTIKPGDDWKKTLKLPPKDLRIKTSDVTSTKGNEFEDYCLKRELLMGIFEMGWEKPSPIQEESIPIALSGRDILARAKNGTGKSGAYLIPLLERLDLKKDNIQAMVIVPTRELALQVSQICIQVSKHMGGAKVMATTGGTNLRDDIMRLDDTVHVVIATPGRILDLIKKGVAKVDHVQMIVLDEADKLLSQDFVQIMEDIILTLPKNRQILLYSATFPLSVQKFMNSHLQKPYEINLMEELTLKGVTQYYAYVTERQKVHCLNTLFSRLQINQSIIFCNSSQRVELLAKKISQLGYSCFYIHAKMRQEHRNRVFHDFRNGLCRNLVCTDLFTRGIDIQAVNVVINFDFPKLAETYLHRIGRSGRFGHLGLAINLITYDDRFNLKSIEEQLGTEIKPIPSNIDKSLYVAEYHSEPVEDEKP
UniProt Q13283: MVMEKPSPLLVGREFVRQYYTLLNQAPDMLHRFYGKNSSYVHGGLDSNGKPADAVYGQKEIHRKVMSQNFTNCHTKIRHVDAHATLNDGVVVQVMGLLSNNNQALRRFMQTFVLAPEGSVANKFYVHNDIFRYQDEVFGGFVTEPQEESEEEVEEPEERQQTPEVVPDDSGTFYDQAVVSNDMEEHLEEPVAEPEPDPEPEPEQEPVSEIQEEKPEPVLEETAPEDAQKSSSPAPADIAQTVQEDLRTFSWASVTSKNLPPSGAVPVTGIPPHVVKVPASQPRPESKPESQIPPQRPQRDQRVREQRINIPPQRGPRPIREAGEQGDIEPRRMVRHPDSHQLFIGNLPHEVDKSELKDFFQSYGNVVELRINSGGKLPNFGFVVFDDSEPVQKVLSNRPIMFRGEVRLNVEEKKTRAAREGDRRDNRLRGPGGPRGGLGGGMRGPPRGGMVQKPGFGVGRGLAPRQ
UniProt P07339: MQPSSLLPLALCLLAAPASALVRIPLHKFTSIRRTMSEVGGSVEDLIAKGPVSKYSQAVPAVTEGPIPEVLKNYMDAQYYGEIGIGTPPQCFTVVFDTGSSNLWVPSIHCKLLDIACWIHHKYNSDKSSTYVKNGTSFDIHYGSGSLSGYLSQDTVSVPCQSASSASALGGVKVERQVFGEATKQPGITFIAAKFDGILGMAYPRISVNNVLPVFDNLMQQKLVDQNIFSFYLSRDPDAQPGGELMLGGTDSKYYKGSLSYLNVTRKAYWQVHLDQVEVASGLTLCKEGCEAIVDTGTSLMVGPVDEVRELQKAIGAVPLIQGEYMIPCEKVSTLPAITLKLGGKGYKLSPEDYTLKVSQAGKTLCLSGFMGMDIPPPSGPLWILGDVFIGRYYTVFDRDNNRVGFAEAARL

Data on one substance can be found in publication PMC12440071.

Results are given in words; binding and its absence hold for the method and conditions named. Binding seen in cells or lysates may run through a third protein. Binding can be weak; no strength is given.

As for “Cathepsin D (from UniProt P07339) (enzyme)”, the binding result in test [1] and in test [2] was “binds” each time.
